We go through one molecule from patent publication US20250009796A1.

Assay [1] has as its target myeloid cell leukemia 1 (MCL-1), Q07820. Kind of assay: co-immunoprecipitation of MCL-1 from lysate of L363 cells treated with SLO and synthetic NOXA, Western blot. As to conditions: remark: other sources report otherwise. (In general: A western blot detects proteins with antibodies after separation by electrophoresis.)
For assay [2] the target is unchanged. Kind of assay: co-immunoprecipitation of MCL-1 (or isotype control IgG) from L363 cells treated with 15 ng/ml SLO with or without synthetic NOXA, Western blot. As to conditions: remark: other sources report otherwise.

Results are given in words; binding and its absence hold for the method and conditions named. Binding seen in cells or lysates may run through a third protein. Some results given as binding are weak or reduced against the parent protein; the word gives no strength.

B1: synthetic NOXA (having same sequence as wildtype NOXA) (peptide)
chain: MPGKKARKNAQPSPARAPAELEVECATQLRRFGDKLNFRQKLLNLISKLFCSGT
For the molecule B1, the binding result in assay [1] and in assay [2] was “binds” in each case.
